# Results taken from the supplement of paper PMC8728848.
# The list shows a part of the results.
# B1: OS9 (Arabidopsis thaliana) (protein)
# chain: MRGSHHHHHHGMASMTGGQQMGRDLYDDDDKSRLQIFPAHLVGTFSRNNREPKYKIEFLPEDSPFHPGDNLESMVMLDKHGNRFLCYLPKEEKATSGWTSSQQNISTVMMETQQLVKLKTPDELLQPLSEKCLFRQEGWWSYEFCHQKYVRQLHVEDENKIVQEFFLGTFDPEATAAFNQTVSDASTDASQRYHSHVYTNGTTCDLTGSPAEVEVRFVCAETRAMVTSITELSTCKYALTVQCPTLCKHPLFQLEKPVSHTIHCNAIPVEEDATRNKEEQAVDESPKMIADS
# Experiments:
# Experiment in all cases: glycan array binding signal (z-score within array); higher = stronger binding
# Conditions in all cases: glycan notation: IUPAC condensed, linker removed; mutation: R201A
# [1] = biological target: Neu5Ac(a2-3)Gal(b1-3)GlcNAc
# Summary of the method: (§1)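 Glycan array data were curated from 3228 arrays in the Consortium for Functional Glycomics database and kept only where the protein sequence was available. Glycan names were converted to IUPAC-condensed notation, and columns mapping to the same glycan were averaged. The binding signal is a within-array Z-score, averaged across arrays of the same protein sequence at different concentrations or buffers and across linkers. Negative Z-scores can be read as non-binding.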
# [2] = biological target: Neu5Ac(a2-3)Gal(b1-3)GlcNAc(b1-2)Man
# Summary of the method: as §1
# [3] = biological target: Neu5Ac(a2-3)Gal(b1-3)GlcNAc(b1-2)Man(a1-3)[GlcNAc(b1-4)][Neu5Ac(a2-3)Gal(b1-3)GlcNAc(b1-2)Man(a1-6)]Man(b1-4)GlcNAc(b1-4)GlcNAc
# Summary of the method: as §1
# [4] = biological target: Neu5Ac(a2-3)Gal(b1-3)GlcNAc(b1-2)Man(a1-3)[Neu5Ac(a2-3)Gal(b1-3)GlcNAc(b1-2)Man(a1-6)]Man(b1-4)GlcNAc(b1-4)GlcNAc
# Summary of the method: as §1
# [5] = biological target: Neu5Ac(a2-3)Gal(b1-3)GlcNAc(b1-2)[Neu5Ac(a2-3)Gal(b1-3)GlcNAc(b1-4)]Man(a1-6)[Neu5Ac(a2-3)Gal(b1-3)GlcNAc(b1-2)Man(a1-3)]Man(b1-4)GlcNAc(b1-4)GlcNAc
# Summary of the method: as §1
# [6] = biological target: Neu5Ac(a2-3)Gal(b1-3)GlcNAc(b1-3)Gal(b1-3)GlcNAc
# Summary of the method: as §1
# [7] = biological target: Neu5Ac(a2-3)Gal(b1-3)GlcNAc(b1-3)Gal(b1-4)GlcNAc
# Summary of the method: as §1
# [8] = biological target: Neu5Ac(a2-3)Gal(b1-3)GlcNAc(b1-3)GalNAc
# Summary of the method: as §1
# [9] = biological target: Neu5Ac(a2-3)Gal(b1-3)GlcNAc(b1-6)GalNAc
# Summary of the method: as §1
# [10] = biological target: Neu5Ac(a2-3)Gal(b1-3)GlcNAc6S
# Summary of the method: as §1
# [11] = biological target: Neu5Ac(a2-3)Gal(b1-3)[Fuc(a1-4)]GlcNAc
# Summary of the method: as §1
# [12] = biological target: Neu5Ac(a2-3)Gal(b1-3)[Fuc(a1-4)]GlcNAc(b1-3)Gal(b1-3)[Fuc(a1-4)]GlcNAc
# Summary of the method: as §1
# [13] = biological target: Neu5Ac(a2-3)Gal(b1-3)[Fuc(a1-4)]GlcNAc(b1-3)Gal(b1-4)[Fuc(a1-3)]GlcNAc
# Summary of the method: as §1
# [14] = biological target: Neu5Ac(a2-3)Gal(b1-3)[GlcNAc(b1-6)]GalNAc
# Summary of the method: as §1
# [15] = biological target: Neu5Ac(a2-3)Gal(b1-3)[Neu5Ac(a2-6)]GalNAc
# Summary of the method: as §1
# [16] = biological target: Neu5Ac(a2-3)Gal(b1-3)[Neu5Ac(a2-6)]GlcNAc(b1-3)[Fuc(a1-3)[Gal(b1-4)]GlcNAc(b1-6)]Gal(b1-4)Glc
# Summary of the method: as §1
# [17] = biological target: Neu5Ac(a2-3)Gal(b1-3)]Neu5Ac(a2-3)Gal(b1-4)]GlcNAc
# Summary of the method: as §1
# Neu5Ac(a2-3)Gal(b1-4)Glc = biological target: Neu5Ac(a2-3)Gal(b1-4)Glc
# Summary of the method: as §1
# [18] = biological target: Neu5Ac(a2-3)Gal(b1-4)GlcNAc
# Summary of the method: as §1
# [19] = biological target: Neu5Ac(a2-3)Gal(b1-4)GlcNAc(b1-2)Man
# Summary of the method: as §1
# [20] = biological target: Neu5Ac(a2-3)Gal(b1-4)GlcNAc(b1-2)Man(a1-3)[GlcNAc(b1-4)][Neu5Ac(a2-3)Gal(b1-4)GlcNAc(b1-2)Man(a1-6)]Man(b1-4)GlcNAc(b1-4)GlcNAc
# Summary of the method: as §1
# [21] = biological target: Neu5Ac(a2-3)Gal(b1-4)GlcNAc(b1-2)Man(a1-3)[Neu5Ac(a2-3)Gal(b1-4)GlcNAc(b1-2)Man(a1-6)]Man(b1-4)GlcNAc(b1-4)GlcNAc
# Summary of the method: as §1
# [22] = biological target: Neu5Ac(a2-3)Gal(b1-4)GlcNAc(b1-2)Man(a1-3)[Neu5Ac(a2-3)Gal(b1-4)GlcNAc(b1-2)Man(a1-6)]Man(b1-4)GlcNAc(b1-4)[Fuc(a1-6)]GlcNAc
# Summary of the method: as §1
# [23] = biological target: Neu5Ac(a2-3)Gal(b1-4)GlcNAc(b1-2)Man(a1-3)[Neu5Ac(a2-6)Gal(b1-4)GlcNAc(b1-2)Man(a1-6)]Man(b1-4)GlcNAc(b1-4)GlcNAc
# Summary of the method: as §1
# [24] = biological target: Neu5Ac(a2-3)Gal(b1-4)GlcNAc(b1-2)[Neu5Ac(a2-3)Gal(b1-4)GlcNAc(b1-4)]Man(a1-3)[GlcNAc(b1-4)][Neu5Ac(a2-3)Gal(b1-4)GlcNAc(b1-2)[Neu5Ac(a2-3)Gal(b1-4)GlcNAc(b1-6)]Man(a1-6)]Man(b1-4)GlcNAc(b1-4)GlcNAc
# Summary of the method: as §1
# [25] = biological target: Neu5Ac(a2-3)Gal(b1-4)GlcNAc(b1-2)[Neu5Ac(a2-3)Gal(b1-4)GlcNAc(b1-4)]Man(a1-3)[GlcNAc(b1-4)][Neu5Ac(a2-3)Gal(b1-4)GlcNAc(b1-4)Man(a1-6)]Man(b1-4)GlcNAc(b1-4)GlcNAc
# Summary of the method: as §1
# [26] = biological target: Neu5Ac(a2-3)Gal(b1-4)GlcNAc(b1-2)[Neu5Ac(a2-3)Gal(b1-4)GlcNAc(b1-6)]Man(a1-6)[Neu5Ac(a2-3)Gal(b1-4)GlcNAc(b1-2)Man(a1-3)][GlcNAc(b1-4)]Man(b1-4)GlcNAc(b1-4)GlcNAc
# Summary of the method: as §1
# [27] = biological target: Neu5Ac(a2-3)Gal(b1-4)GlcNAc(b1-3)Gal
# Summary of the method: as §1
# [28] = biological target: Neu5Ac(a2-3)Gal(b1-4)GlcNAc(b1-3)Gal(b1-3)GlcNAc
# Summary of the method: as §1
# [29] = biological target: Neu5Ac(a2-3)Gal(b1-4)GlcNAc(b1-3)Gal(b1-4)GlcNAc
# Summary of the method: as §1
# [30] = biological target: Neu5Ac(a2-3)Gal(b1-4)GlcNAc(b1-3)Gal(b1-4)GlcNAc(b1-2)Man(a1-3)[Neu5Ac(a2-3)Gal(b1-4)GlcNAc(b1-3)Gal(b1-4)GlcNAc(b1-2)Man(a1-6)]Man(b1-4)GlcNAc(b1-4)GlcNAc
# Summary of the method: as §1
# [31] = biological target: Neu5Ac(a2-3)Gal(b1-4)GlcNAc(b1-3)Gal(b1-4)GlcNAc(b1-3)Gal(b1-4)GlcNAc
# Summary of the method: as §1
# [32] = biological target: Neu5Ac(a2-3)Gal(b1-4)GlcNAc(b1-3)Gal(b1-4)GlcNAc(b1-3)Gal(b1-4)GlcNAc(b1-2)Man(a1-3)[Neu5Ac(a2-3)Gal(b1-4)GlcNAc(b1-3)Gal(b1-4)GlcNAc(b1-3)Gal(b1-4)GlcNAc(b1-2)Man(a1-6)]GalNAc
# Summary of the method: as §1
# [33] = biological target: Neu5Ac(a2-3)Gal(b1-4)GlcNAc(b1-3)Gal(b1-4)GlcNAc(b1-3)GalNAc
# Summary of the method: as §1
# [34] = biological target: Neu5Ac(a2-3)Gal(b1-4)GlcNAc(b1-3)Gal(b1-4)GlcNAc(b1-3)[Neu5Ac(a2-3)Gal(b1-4)GlcNAc(b1-3)Gal(b1-4)GlcNAc(b1-6)]GalNAc
# Summary of the method: as §1
# [35] = biological target: Neu5Ac(a2-3)Gal(b1-4)GlcNAc(b1-3)Gal(b1-4)GlcNAc(b1-6)[Gal(b1-3)]GalNAc
# Summary of the method: as §1
# [36] = biological target: Neu5Ac(a2-3)Gal(b1-4)GlcNAc(b1-3)Gal(b1-4)[Fuc(a1-3)]GlcNAc
# Summary of the method: as §1
# [37] = biological target: Neu5Ac(a2-3)Gal(b1-4)GlcNAc(b1-3)GalNAc
# Summary of the method: as §1
binder,measurement,setting,value
B1,glycan array binding signal (z-score),[1],0.668
same,glycan array binding signal (z-score),[2],-0.442
same,glycan array binding signal (z-score),[3],1.21
same,glycan array binding signal (z-score),[4],-0.911
same,glycan array binding signal (z-score),[5],-1.14
same,glycan array binding signal (z-score),[6],1.08
same,glycan array binding signal (z-score),[7],-0.934
same,glycan array binding signal (z-score),[8],-0.046
same,glycan array binding signal (z-score),[9],-0.495
same,glycan array binding signal (z-score),[10],-0.775
same,glycan array binding signal (z-score),[11],-0.618
same,glycan array binding signal (z-score),[12],-0.446
same,glycan array binding signal (z-score),[13],-0.256
same,glycan array binding signal (z-score),[14],-0.397
same,glycan array binding signal (z-score),[15],0.179
same,glycan array binding signal (z-score),[16],0.799
same,glycan array binding signal (z-score),[17],1.78
same,glycan array binding signal (z-score),Neu5Ac(a2-3)Gal(b1-4)Glc,2.08
same,glycan array binding signal (z-score),[18],-0.367
same,glycan array binding signal (z-score),[19],-0.531
same,glycan array binding signal (z-score),[20],-0.348
same,glycan array binding signal (z-score),[21],-0.728
same,glycan array binding signal (z-score),[22],0.474
same,glycan array binding signal (z-score),[23],-0.425
same,glycan array binding signal (z-score),[24],-0.729
same,glycan array binding signal (z-score),[25],-0.731
same,glycan array binding signal (z-score),[26],-0.773
same,glycan array binding signal (z-score),[27],-0.585
same,glycan array binding signal (z-score),[28],-0.881
same,glycan array binding signal (z-score),[29],0.1
same,glycan array binding signal (z-score),[30],0.578
same,glycan array binding signal (z-score),[31],-0.096
same,glycan array binding signal (z-score),[32],-0.399
same,glycan array binding signal (z-score),[33],0.811
same,glycan array binding signal (z-score),[34],1.19
same,glycan array binding signal (z-score),[35],1.23
same,glycan array binding signal (z-score),[36],0.333
same,glycan array binding signal (z-score),[37],-0.129

# An excerpt of these results, as tab-separated lines:
binder	measurement	setting	value
B1	glycan array binding signal (z-score)	[1]	0.668
same	glycan array binding signal (z-score)	[11]	-0.618
